From PubChem BioAssay AID483 (Columbia University Molecular Screening Center, 2006) come the findings set out here.

The structures appear in SMILES notation. Some of the results follow.

The experiment is described as follows: inhibitors of mutant huntingtin aggregation, primary screen, imaging, exon1htt(103Q)mCFP cells, high-content imaging (AID 483).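 Further: compound exposure lasted 3 days before fixation; percent of the per-plate median nuclei count of sample wells.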 The note with it: exon1htt(103Q)mCFP cell line, aggregate imaging; measured here: cell count, toxicity; at 2 µM.
`Fc1ccccc1NC1CCN(Cc2ccccc2)CC1` gave a nuclei count of 99.2%.
